The experiment concerns guinea pigs. The procedure:
After cannulating the trachea, animals were respired using a small animal respiratory pump with a constant tidal volume and a rate of 60 breaths/min. The lung resistance was measured by using a rodent lung function recording system (MUMED, London, UK). Compounds were given intravenously (i.v.) via a catheter placed in the right jugular vein. After surgery, the animals were allowed to stabilize. 10 min before acetylcholine (10 μg/kg, i.v.) administration, the guinea pigs were disconnected from the respirator and either vehicle (10 mg/lactose) or different amounts of drugs (blended with lactose) were administered intratracheally (i.th.) using a syringe. The trachea was then reconnected to the respirator and changes in pulmonary mechanics were recorded. Acetylcholine (10 μg/kg) was injected intravenously in every 10 minutes for 60 min.

For `COc1ccc(CC(C)NCC(O)c2ccc(O)c(NC=O)c2)cc1` (centres unmarked) [formoterol], the “attenuation of bronchoconstriction induced by i.v. acetylcholine” value (highest dose of 10 μg/kg, i.th.) is “almost completely attenuated”. Besides, the “dilation of the airways (bronchodilatory effect)” value (medium dose of 3 mg/kg, i.th. (so in the source)) is “about 20%”.
